Laboratory results from US20260193236A1 (Protego Biopharma, Inc., priority 2022, published 2026).
The name of at least one read-out is uncertain.

The compounds below were run on IRE1-XBP1s (XBP1-RLuc splicing reporter in HEK293 T-REx cells) (assay: IRE1-XBP1s activation assay (XBP1-RLuc splicing reporter, HEK293 T-REx cells, luminescence relative to thapsigargin)). Details: compound 10 μM, 18 h, relative to thapsigargin (Tg) 500 nM.
Assay type: cell-based
Protocol: IRE1-XBP1s activation Assay: HEK293 T-REx cells stably expressing the XBP1-RLuc splicing reporter were treated with an IRE1-XBP1s activator provided herein (10 μM) in the presence or absence of the IRE1 active site inhibitor 4μ8C (32 μM) for 18 h. Luminescence was shown as the percentage signal relative to thapsigargin (Tg) (500 nM, 18 h).
With `Cc1ccc(OCCN(C)C(=O)Cn2cc(NC(=O)CCNc3ccncc3F)cn2)cc1` [Compound 252] the “Activity (IRE1-XBP1s activation, luminescence as % signal relative to thapsigargin, % Tg)” value was “+ (30% =< % Tg < 50%)”. In the case of `Cc1ccc(OCCN(C)C(=O)Cn2cc(NC(=O)CCNc3cc(C)nc(C)c3)cn2)cc1` [Compound 229], the “Activity (IRE1-XBP1s activation, luminescence as % signal relative to thapsigargin, % Tg)” value was “+/− (% Tg % < 30%)”. In the case of `Cc1ccc(OCCN(C)C(=O)Cn2cc(NC(=O)CCNc3ccnc(C)c3)cn2)cc1` [Compound 228], the “Activity (IRE1-XBP1s activation, luminescence as % signal relative to thapsigargin, % Tg)” value was “+/− (% Tg % < 30%)”.
